Source: the supplement of paper PMC8728848
The other results are listed elsewhere or left out.

How the values were obtained:
Assay in all cases: glycan array binding signal (z-score within array); higher = stronger binding
Settings in all cases: glycan notation: IUPAC condensed, linker removed
[1] = molecular target: Neu5Ac(a2-3)Gal(b1-3)]Neu5Ac(a2-3)Gal(b1-4)]GlcNAc
Outline: (§1)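 The Consortium for Functional Glycomics database supplied 3228 glycan arrays, of which those lacking an available protein sequence were dropped. The binding signal, a within-array Z-score, was averaged across arrays of the same protein sequence and across linkers. Negative scores can be read as non-binding.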

[2] = molecular target: Neu5Ac(a2-3)Gal(b1-4)Glc
Outline: as §1

[3] = molecular target: Neu5Ac(a2-3)Gal(b1-4)GlcNAc
Outline: as §1

[4] = molecular target: Neu5Ac(a2-3)Gal(b1-4)GlcNAc(b1-2)Man
Outline: as §1

[5] = molecular target: Neu5Ac(a2-3)Gal(b1-4)GlcNAc(b1-2)Man(a1-3)[GlcNAc(b1-4)][Neu5Ac(a2-3)Gal(b1-4)GlcNAc(b1-2)Man(a1-6)]Man(b1-4)GlcNAc(b1-4)GlcNAc
Outline: as §1

[6] = molecular target: Neu5Ac(a2-3)Gal(b1-4)GlcNAc(b1-2)Man(a1-3)[Neu5Ac(a2-3)Gal(b1-4)GlcNAc(b1-2)Man(a1-6)]Man(b1-4)GlcNAc(b1-4)GlcNAc
Outline: as §1

[7] = molecular target: Neu5Ac(a2-3)Gal(b1-4)GlcNAc(b1-2)Man(a1-3)[Neu5Ac(a2-3)Gal(b1-4)GlcNAc(b1-2)Man(a1-6)]Man(b1-4)GlcNAc(b1-4)[Fuc(a1-6)]GlcNAc
Outline: as §1

[8] = molecular target: Neu5Ac(a2-3)Gal(b1-4)GlcNAc(b1-2)Man(a1-3)[Neu5Ac(a2-6)Gal(b1-4)GlcNAc(b1-2)Man(a1-6)]Man(b1-4)GlcNAc(b1-4)GlcNAc
Outline: as §1

[9] = molecular target: Neu5Ac(a2-3)Gal(b1-4)GlcNAc(b1-2)[Neu5Ac(a2-3)Gal(b1-4)GlcNAc(b1-4)]Man(a1-3)[GlcNAc(b1-4)][Neu5Ac(a2-3)Gal(b1-4)GlcNAc(b1-2)[Neu5Ac(a2-3)Gal(b1-4)GlcNAc(b1-6)]Man(a1-6)]Man(b1-4)GlcNAc(b1-4)GlcNAc
Outline: as §1

[10] = molecular target: Neu5Ac(a2-3)Gal(b1-4)GlcNAc(b1-2)[Neu5Ac(a2-3)Gal(b1-4)GlcNAc(b1-4)]Man(a1-3)[GlcNAc(b1-4)][Neu5Ac(a2-3)Gal(b1-4)GlcNAc(b1-4)Man(a1-6)]Man(b1-4)GlcNAc(b1-4)GlcNAc
Outline: as §1

[11] = molecular target: Neu5Ac(a2-3)Gal(b1-4)GlcNAc(b1-2)[Neu5Ac(a2-3)Gal(b1-4)GlcNAc(b1-6)]Man(a1-6)[Neu5Ac(a2-3)Gal(b1-4)GlcNAc(b1-2)Man(a1-3)]Man(b1-4)GlcNAc(b1-4)GlcNAc
Outline: as §1

[12] = molecular target: Neu5Ac(a2-3)Gal(b1-4)GlcNAc(b1-2)[Neu5Ac(a2-3)Gal(b1-4)GlcNAc(b1-6)]Man(a1-6)[Neu5Ac(a2-3)Gal(b1-4)GlcNAc(b1-2)Man(a1-3)][GlcNAc(b1-4)]Man(b1-4)GlcNAc(b1-4)GlcNAc
Outline: as §1

[13] = molecular target: Neu5Ac(a2-3)Gal(b1-4)GlcNAc(b1-3)Gal
Outline: as §1

[14] = molecular target: Neu5Ac(a2-3)Gal(b1-4)GlcNAc(b1-3)Gal(b1-3)GlcNAc
Outline: as §1

[15] = molecular target: Neu5Ac(a2-3)Gal(b1-4)GlcNAc(b1-3)Gal(b1-4)GlcNAc
Outline: as §1

[16] = molecular target: Neu5Ac(a2-3)Gal(b1-4)GlcNAc(b1-3)Gal(b1-4)GlcNAc(b1-2)Man(a1-3)[Neu5Ac(a2-3)Gal(b1-4)GlcNAc(b1-3)Gal(b1-4)GlcNAc(b1-2)Man(a1-6)]Man(b1-4)GlcNAc(b1-4)GlcNAc
Outline: as §1

[17] = molecular target: Neu5Ac(a2-3)Gal(b1-4)GlcNAc(b1-3)Gal(b1-4)GlcNAc(b1-3)Gal(b1-4)GlcNAc
Outline: as §1

[18] = molecular target: Neu5Ac(a2-3)Gal(b1-4)GlcNAc(b1-3)Gal(b1-4)GlcNAc(b1-3)Gal(b1-4)GlcNAc(b1-2)Man(a1-3)[Neu5Ac(a2-3)Gal(b1-4)GlcNAc(b1-3)Gal(b1-4)GlcNAc(b1-3)Gal(b1-4)GlcNAc(b1-2)Man(a1-6)]GalNAc
Outline: as §1

[19] = molecular target: Neu5Ac(a2-3)Gal(b1-4)GlcNAc(b1-3)Gal(b1-4)GlcNAc(b1-3)GalNAc
Outline: as §1

[20] = molecular target: Neu5Ac(a2-3)Gal(b1-4)GlcNAc(b1-3)Gal(b1-4)GlcNAc(b1-3)[Neu5Ac(a2-3)Gal(b1-4)GlcNAc(b1-3)Gal(b1-4)GlcNAc(b1-6)]GalNAc
Outline: as §1

[21] = molecular target: Neu5Ac(a2-3)Gal(b1-4)GlcNAc(b1-3)Gal(b1-4)GlcNAc(b1-6)[Gal(b1-3)]GalNAc
Outline: as §1

[22] = molecular target: Neu5Ac(a2-3)Gal(b1-4)GlcNAc(b1-3)Gal(b1-4)[Fuc(a1-3)]GlcNAc
Outline: as §1

[23] = molecular target: Neu5Ac(a2-3)Gal(b1-4)GlcNAc(b1-3)GalNAc
Outline: as §1

[24] = molecular target: Neu5Ac(a2-3)Gal(b1-4)GlcNAc(b1-3)[Neu5Ac(a2-3)Gal(b1-4)GlcNAc(b1-6)]GalNAc
Outline: as §1

[25] = molecular target: Neu5Ac(a2-3)Gal(b1-4)GlcNAc(b1-6)GalNAc
Outline: as §1

[26] = molecular target: Neu5Ac(a2-3)Gal(b1-4)GlcNAc(b1-6)[Gal(b1-3)]GalNAc
Outline: as §1

[27] = molecular target: Neu5Ac(a2-3)Gal(b1-4)GlcNAc(b1-6)[Neu5Ac(a2-3)Gal(b1-3)]GalNAc
Outline: as §1

[28] = molecular target: Neu5Ac(a2-3)Gal(b1-4)GlcNAc6S
Outline: as §1

[29] = molecular target: Neu5Ac(a2-3)Gal(b1-4)[Fuc(a1-3)]GlcNAc
Outline: as §1

[30] = molecular target: Neu5Ac(a2-3)Gal(b1-4)[Fuc(a1-3)]GlcNAc(b1-2)Man
Outline: as §1

[31] = molecular target: Neu5Ac(a2-3)Gal(b1-4)[Fuc(a1-3)]GlcNAc(b1-3)Gal
Outline: as §1

[32] = molecular target: Neu5Ac(a2-3)Gal(b1-4)[Fuc(a1-3)]GlcNAc(b1-3)Gal(b1-4)GlcNAc
Outline: as §1

[33] = molecular target: Neu5Ac(a2-3)Gal(b1-4)[Fuc(a1-3)]GlcNAc(b1-3)Gal(b1-4)[Fuc(a1-3)]GlcNAc(b1-3)Gal(b1-4)[Fuc(a1-3)]GlcNAc
Outline: as §1

[34] = molecular target: Neu5Ac(a2-3)Gal(b1-4)[Fuc(a1-3)]GlcNAc(b1-3)GalNAc
Outline: as §1

[35] = molecular target: Neu5Ac(a2-3)Gal(b1-4)[Fuc(a1-3)]GlcNAc(b1-6)[Gal(b1-3)]GalNAc
Outline: as §1

[36] = molecular target: Neu5Ac(a2-3)Gal(b1-4)[Fuc(a1-3)]GlcNAc(b1-6)[Neu5Ac(a2-3)Gal(b1-3)]GalNAc
Outline: as §1

[37] = molecular target: Neu5Ac(a2-3)Gal(b1-4)[Fuc(a1-3)]GlcNAc6S
Outline: as §1

[38] = molecular target: Neu5Ac(a2-3)Gal6S(b1-4)GlcNAc
Outline: as §1

B1: AT1G80310(18) (Arabidopsis thaliana), Q0WP36 (protein)
chain: METTTTPLLPGDRSRCGWLRRRLRLKNPLSSELSGAVGDLGTFIPIVLTLTLVSNLDLSTTLIFTGFYNIATGLLFDIPMPVQPMKSIAAVAVSESPHLTPSQIAAAGASTAATLLLLGATGAMSFLYNIIPLPVVRGVQLSQGLQFAFTAIKYVRFNYDTATLKPSSSPRIWLGLDGLILALAALLFIILSTGSGNDREAEDGDLAETSSNESQSRRRRLRLLSSIPSALIVFALGLVLCFIRDPSIFKDLKFGPSKFHILRISWDDWKIGFLRAAIPQIPLSVLNSVIAVCKLSNDLFDKELSATTVSISVGVMNLIGCWFGAMPVCHGAGGLAGQYRFGARSGLSVIFLGIGKLIVGLVFGNSFVRILSQFPIGILGVLLLFAGIELAMASKDMNSKEDSFIMLVCAAVSMTGSSAALGFGCGVVLYLLLKLRTLDCSSVTLFSRSSDESQVDSEAAPRDV
In the case of B1, the “glycan array binding signal (z-score)” value [1] is reported as -0.819, the “glycan array binding signal (z-score)” value [2] is reported as -0.298 and the “glycan array binding signal (z-score)” value [3] is reported as -0.649. For the same binder, the “glycan array binding signal (z-score)” value [4] was 0.054, the “glycan array binding signal (z-score)” value [5] was -1.21 and the “glycan array binding signal (z-score)” value [6] was -0.801. For the same binder, the “glycan array binding signal (z-score)” value [7] was -0.895, the “glycan array binding signal (z-score)” value [8] was -0.856 and the “glycan array binding signal (z-score)” value [9] was 1.21. For the same binder, the “glycan array binding signal (z-score)” value [10] was 0.431, the “glycan array binding signal (z-score)” value [11] was 0.367 and the “glycan array binding signal (z-score)” value [12] was -0.012. For the same binder, the “glycan array binding signal (z-score)” value [13] was -0.893, the “glycan array binding signal (z-score)” value [14] was -0.162 and the “glycan array binding signal (z-score)” value [15] was -0.967. For the same binder, the “glycan array binding signal (z-score)” value [16] was -0.826, the “glycan array binding signal (z-score)” value [17] was -0.62 and the “glycan array binding signal (z-score)” value [18] was -0.823. For the same binder, the “glycan array binding signal (z-score)” value [19] was 0.212, the “glycan array binding signal (z-score)” value [20] was -0.851 and the “glycan array binding signal (z-score)” value [21] was -0.872. The “glycan array binding signal (z-score)” value [22] was -0.869, the “glycan array binding signal (z-score)” value [23] was 0.517 and the “glycan array binding signal (z-score)” value [24] was -0.652. For the same binder, the “glycan array binding signal (z-score)” value [25] was -0.434, the “glycan array binding signal (z-score)” value [26] was -0.941 and the “glycan array binding signal (z-score)” value [27] was -1.06. The “glycan array binding signal (z-score)” value [28] was -0.892, the “glycan array binding signal (z-score)” value [29] was 0.167 and the “glycan array binding signal (z-score)” value [30] was 0.109. For the same binder, the “glycan array binding signal (z-score)” value [31] was -0.507, the “glycan array binding signal (z-score)” value [32] was 1.02 and the “glycan array binding signal (z-score)” value [33] was -0.797. The “glycan array binding signal (z-score)” value [34] was 0.629, the “glycan array binding signal (z-score)” value [35] was 0.507 and the “glycan array binding signal (z-score)” value [36] was 0.138. For the same binder, the “glycan array binding signal (z-score)” value [37] was -0.834 and the “glycan array binding signal (z-score)” value [38] was 1.19.
